The record followed here is PMC12279241.

This assay has as its target T1, TMCO3 (IP experiments whose cells are not stated) (UniProt Q6UWJ1).
T1 sequence: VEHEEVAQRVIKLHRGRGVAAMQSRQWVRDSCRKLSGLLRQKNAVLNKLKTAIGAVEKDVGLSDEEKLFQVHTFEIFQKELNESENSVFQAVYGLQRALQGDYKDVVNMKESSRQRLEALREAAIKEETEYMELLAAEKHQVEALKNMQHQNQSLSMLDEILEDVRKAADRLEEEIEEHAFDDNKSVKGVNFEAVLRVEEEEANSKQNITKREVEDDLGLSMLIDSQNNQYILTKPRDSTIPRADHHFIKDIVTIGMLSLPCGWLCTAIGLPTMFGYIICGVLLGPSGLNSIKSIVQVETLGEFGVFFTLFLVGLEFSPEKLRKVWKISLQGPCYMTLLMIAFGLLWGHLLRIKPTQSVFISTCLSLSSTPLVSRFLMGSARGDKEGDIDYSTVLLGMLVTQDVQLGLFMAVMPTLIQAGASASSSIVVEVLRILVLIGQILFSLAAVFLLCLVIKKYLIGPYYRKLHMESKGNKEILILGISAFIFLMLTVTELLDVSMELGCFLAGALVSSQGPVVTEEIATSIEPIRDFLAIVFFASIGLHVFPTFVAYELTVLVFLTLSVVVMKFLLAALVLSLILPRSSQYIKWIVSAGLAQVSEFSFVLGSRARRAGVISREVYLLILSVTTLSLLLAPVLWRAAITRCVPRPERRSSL
The experiment in a line: affinity purification with mass spectrometry; immunoprecipitation (IP) of TMCO3 followed by MS; cells not given.

Results are given in words; binding and its absence hold for the method and conditions named. Binding seen in cells or lysates may run through a third protein. Here binding means that the protein was enriched with, or labelled near, the bait; the list need not be complete.

“AKT (IP experiments whose cells are not stated)”: the binding result is given as “binds”.
